# Some of these results come from one statement about several compounds together. Square brackets hold non-standard residues; d marks the D form. Peptide text beside a SMILES is read from it. pY = N[C@@H](Cc1ccc(OP(=O)(O)O)cc1)C(=O)O
# Experiments:
# [1] = test system: scopolamine (0.7 mg/kg)-treated rats; assay: Elevated plus-maze test; conditions: 15 μM, Tukey's post hoc, n=5; for p, Sco vs. peptide, open arms time %: FIG. 13; for p, Sco vs. peptide, number of open arms entries: FIG. 14
# [2] = test system: scopolamine (0.7 mg/kg)-treated rats; assay: Radial arm-maze test, scopolamine-induced cognitive impairment; conditions: 15 μM, Tukey's post hoc, n=5; for p, Sco vs. peptide, number of working memory errors: FIG. 8; for p, Sco vs. peptide, number of reference memory errors: FIG. 10
# [3] = test system: scopolamine (0.7 mg/kg)-treated rats; assay: Forced swimming test; conditions: 15 μM, Tukey's post hoc, n=5; for p, Sco vs. peptide, swimming time: FIG. 11; for p, Sco vs. peptide, immobility time: FIG. 12
# [4] = test system: scopolamine (0.7 mg/kg)-treated rats; assay: Y-maze test, scopolamine-induced cognitive impairment; conditions: 15 μM; Tukey's post hoc; n=5; FIG. 9
Compound,"p, Sco vs. peptide, open arms time % [1]","p, Sco vs. peptide, number of working memory errors [2]","p, Sco vs. peptide, number of reference memory errors [2]","p, Sco vs. peptide, swimming time [3]","p, Sco vs. peptide, immobility time [3]","p, Sco vs. peptide, spontaneous alternation percentage [4]","p, Sco vs. peptide, number of open arms entries [1]"
"CC(C)[C@H](NC(=O)[C@H](CC(N)=O)NC(=O)[C@H](Cc1ccc(O)cc1)NC(=O)CNC(=O)[C@@H](N)CCC(=O)O)C(=O)N[C@@H](Cc1ccc(OP(=O)(O)O)cc1)C(=O)N[C@@H](CCC(=O)O)C(=O)O [p-fin 4, EGYNVpYE] (H-EGYNV[pY]E-OH)",< 0.0001,–,–,–,–,–,–
(TAT-)p3Y-sh3: p3Ysh-3 (EGYNVpY) N-terminally fused to the TAT cell-penetrating sequence (GRKKRRQRRRPQEGYNVY),< 0.0001,< 0.0001,< 0.0001,< 0.0001,< 0.001,< 0.001,< 0.001
(TAT-)p-fin 4: p-fin4 (EGYNVpYE) N-terminally fused to the TAT cell-penetrating sequence (GRKKRRQRRRPQEGYNVYE),–,< 0.0001,< 0.0001,< 0.0001,< 0.001,< 0.001,< 0.001

# Reference: patent US20240067677A1, “Interference Peptides As Inhibitors Of Interactions Related To Ampar Endocytosis” (priority 2020, published 2024)
